# Assay results as given in ChEMBL document CHEMBL5729263, “Treatment of tachycardia” (2022).
# By UniProt entry, the sequences of proteins in these tests, tags left out. Where a name states a change or a piece, a line headed by the entry shows the natural chain unless it says otherwise.
# UniProt Q9Y233: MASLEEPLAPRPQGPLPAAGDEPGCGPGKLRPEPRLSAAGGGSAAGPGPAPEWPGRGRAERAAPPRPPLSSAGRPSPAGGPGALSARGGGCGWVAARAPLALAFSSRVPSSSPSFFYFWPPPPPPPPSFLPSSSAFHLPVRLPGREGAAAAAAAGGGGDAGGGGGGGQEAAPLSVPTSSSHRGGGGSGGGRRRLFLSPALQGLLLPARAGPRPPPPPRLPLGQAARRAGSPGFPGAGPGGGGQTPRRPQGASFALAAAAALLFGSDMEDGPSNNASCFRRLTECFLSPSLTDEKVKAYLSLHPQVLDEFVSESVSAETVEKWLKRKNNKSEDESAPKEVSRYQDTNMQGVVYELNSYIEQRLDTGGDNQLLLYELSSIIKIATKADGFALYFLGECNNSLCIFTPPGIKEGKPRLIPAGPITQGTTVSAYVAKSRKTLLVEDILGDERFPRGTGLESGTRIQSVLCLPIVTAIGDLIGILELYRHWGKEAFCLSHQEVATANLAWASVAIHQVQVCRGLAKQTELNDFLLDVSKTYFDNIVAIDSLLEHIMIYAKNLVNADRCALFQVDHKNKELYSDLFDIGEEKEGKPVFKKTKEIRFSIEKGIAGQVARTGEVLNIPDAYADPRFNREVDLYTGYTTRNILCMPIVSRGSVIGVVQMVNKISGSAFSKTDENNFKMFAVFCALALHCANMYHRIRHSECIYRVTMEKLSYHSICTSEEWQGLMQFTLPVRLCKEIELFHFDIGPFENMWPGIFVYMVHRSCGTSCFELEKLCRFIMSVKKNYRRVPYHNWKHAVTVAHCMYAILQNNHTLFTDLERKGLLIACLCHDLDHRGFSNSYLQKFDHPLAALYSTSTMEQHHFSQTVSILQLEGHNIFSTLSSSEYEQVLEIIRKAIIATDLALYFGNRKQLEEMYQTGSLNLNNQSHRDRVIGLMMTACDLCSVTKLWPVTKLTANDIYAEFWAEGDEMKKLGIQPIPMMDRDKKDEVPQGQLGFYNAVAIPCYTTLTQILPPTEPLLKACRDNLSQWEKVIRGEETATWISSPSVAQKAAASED
# Biological target: cAMP and cAMP-inhibited cGMP 3',5'-cyclic phosphodiesterase 10A (Homo sapiens, UniProt Q9Y233)
Compound,Ki,IC50
CN1CCN(c2ccc(Oc3nn4c(-c5ccccc5Cl)nnc4c4ccccc34)cc2)CC1,1800 nM,
CCCOc1ccc(F)c(-c2nc(C)c3nnc4ccc(OC)nc4n23)c1,,282 nM
